Data taken from patent US20210223229A1, “IMMUNE FUNCTION INSPECTION METHOD, CANCER PATIENT CATEGORIZATION METHOD, CANCER TREATMENT EFFICACY PREDICTION METHOD, AGENT FOR INCREASING INTRACELLULAR CALCIUM ION CONCENTRATION, AGENT FOR INCREASING SELECTIVE FUNCTION OF EFFECTOR MEMORY (EM) AND EFFECTOR (EFF) IN TUMOR TISSUE, AND METHOD FOR …” (NATIONAL UNIVERSITY CORPORATION OKAYAMA UNIVERSITY, priority 2016, published 2021).

Test system: glucose transporter (Glut1) in CD8TIL
Experiment: Glut1 expression versus changes in glucose concentration in CD8TIL, MethA tumor
Assay type: in vivo, BALB/c mice
Conditions: 6-hour in-vitro culture
Protocol: Syngeneic tumor (MethA) 2×10^6 was intradermally injected to 8-week old BALB/c mice, and administration of metformin (5 mg/mL) was started from Day 7. Three days after the treatment, the tumor-infiltrating T cells (TIL) were separated. After culture in the presence of a culture solution having a glucose concentration of 0, 0.1, 1.2, 6.1, 12.5, or 25 mM at 37° C. for 0, 1, 3, 6 hours, the cells were stained with CD3, CD8, and glucose transporter (Glut1) antibodies, followed by analysis using a flow cytometer (FIG. 9).

## CN(C)C(=N)N=C(N)N [metformin]
  glucose concentration at which the highest Glut-1 level was observed: 6.1 µM
  glucose concentration of the culture solution at which the highest Glut-1 up-regulation was observed: ≥ 6.1 mM
